{
  "source": "the supplement of paper PMC10338343",
  "note": "± gives the standard deviation. Only a part is listed here, and it is no random draw. Many entries were measured with a wide error.",
  "data": [
    {"test_system": "MILI (PIWIL2) piRISC loaded with piRNA #2 (26 nt)", "test": "pre-steady-state target cleavage rate (min^-1); MIWI and MILI are mouse PIWI proteins and EfPiwi is from a freshwater sponge; tags in brackets are library labels; higher = faster piRNA-guided slicing of the target", "conditions": "guide: piRNA #2 5'p-UUAGGUAACCCAGUAGAUCCAGAGGA; auxiliary factor: 500 nM mouse GTSF1", "method_in_brief": "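Cleave-'n-Seq reactions paired 0.1 nM transcribed, DNA-blocked target RNA library with 1 nM active affinity-purified piRISC holding one synthetic guide, plus or minus 500 nM GTSF1 partner protein, in HEPES–potassium acetate buffer at 33 °C for 0–8 or 0–960 min. After sequencing of uncleaved targets and normalisation to depth and weakly complementary targets, the pre-steady-state cleavage rate was taken from a burst-and-steady-state fit. Three trials were pooled, and k3 was capped at 0.0001 min^-1.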", "values": [
      {"sequence": "CUUAAGGAGACGAUCUACUCGGUUAGCUAA", "pre-steady-state target cleavage rate": "0.000134 ± 0.04"},
      {"sequence": "CUUAAGGAGAGGUCUACUGGGUUACCUAA", "pre-steady-state target cleavage rate": "0.00146 ± 0.0056"},
      {"sequence": "CUUAAGGAGUGGAUCUAACUGGGUUACCUAA", "pre-steady-state target cleavage rate": "0.000351 ± 0.019"},
      {"sequence": "CUUAAGGAGACCUAGUACUGGGUUACCCAA", "pre-steady-state target cleavage rate": "0.000103 ± 0.048"},
      {"sequence": "CUUAAGGAGACCUAGAUGAGGGUGUACCUAA", "pre-steady-state target cleavage rate": "0.000208 ± 0.049"},
      {"sequence": "CUUAUCCUCUGGAUCUACUGGCUUACGUAA", "pre-steady-state target cleavage rate": "0.000328 ± 0.032"},
      {"sequence": "CUUAAGGAGACCUUCUAGUGGGUUACCUUA", "pre-steady-state target cleavage rate": "0.000415 ± 0.017"},
      {"sequence": "CUUAAGGAGACCUUCUACUGGGUUACCUUAA", "pre-steady-state target cleavage rate": "0.000443 ± 0.019"},
      {"sequence": "CUUAAGGAGACCUUCUACUGGGAUUACCUAA", "pre-steady-state target cleavage rate": "0.00145 ± 0.007"},
      {"sequence": "CUUAAGGAGACCAUCUACUGGCUAACCUAA", "pre-steady-state target cleavage rate": "0.000135 ± 0.027"},
      {"sequence": "CUUAAGGAGACCAACUACUGCGUUACCUAA", "pre-steady-state target cleavage rate": "0.00072 ± 0.012"},
      {"sequence": "CUUAAGCCUCUGGAUCUACUGGGUUACCUAA", "pre-steady-state target cleavage rate": "0.146 ± 0.043"},
      {"sequence": "CUUAAGGAGUGGAACUACUGGGUUACCUUA", "pre-steady-state target cleavage rate": "0.00631 ± 0.0078"},
      {"sequence": "CUUAUCCUCUGAGAUCUACUGGGUUACCUAA", "pre-steady-state target cleavage rate": "0.106 ± 0.02"},
      {"sequence": "CUUAAGGAGACGAUCUACACCGUUACCUAA", "pre-steady-state target cleavage rate": "0.000665 ± 0.022"},
      {"sequence": "CUUAAGGAGUGGAUCUACUGCGUAACCUAA", "pre-steady-state target cleavage rate": "0.000878 ± 0.019"},
      {"sequence": "CUUAAGGAGACCUUCUACUGGGUUAGCUAA", "pre-steady-state target cleavage rate": "0.000783 ± 0.01"},
      {"sequence": "CUUAACCUCUGGAUCUACUGGCUUACCUUA", "pre-steady-state target cleavage rate": "0.000815 ± 0.0083"},
      {"sequence": "CUUAAGGUCUGGAUCUACAGGCUUACCUAA", "pre-steady-state target cleavage rate": "0.00108 ± 0.012"},
      {"sequence": "CUUAAGGAGACCAUCUACGGGGUUACCUAA", "pre-steady-state target cleavage rate": "0.00366 ± 0.0053"},
      {"sequence": "CUUAAGGACUGGAUCUACUGGGGUACCUAA", "pre-steady-state target cleavage rate": "0.00625 ± 0.0063"},
      {"sequence": "CUUAAGGAGACCUACAUACUGGGUUACCUAA", "pre-steady-state target cleavage rate": "0.000344 ± 0.025"},
      {"sequence": "CUUAAGGAGACCAUCAUACUGGGUUACCUAA", "pre-steady-state target cleavage rate": "0.000374 ± 0.029"},
      {"sequence": "CUUAAGGAGACCUACUACAGGGUUACCUAA", "pre-steady-state target cleavage rate": "0.000133 ± 0.022"},
      {"sequence": "CUUAAGGAGACCAUCUACUGGAGUUACCUAA", "pre-steady-state target cleavage rate": "0.000335 ± 0.013"},
      {"sequence": "CUUAAGGAGACGAUCUACUCCGUUACCUAA", "pre-steady-state target cleavage rate": "0.0013 ± 0.0061"},
      {"sequence": "CUUAAGGAGAGGAUCUAGUGGGUAACCUAA", "pre-steady-state target cleavage rate": "0.000155 ± 0.036"},
      {"sequence": "CUUAAGGAGACCUAGUCCUGGGUUACCUAA", "pre-steady-state target cleavage rate": "0.000197 ± 0.048"},
      {"sequence": "CUUAAGGACAGGAUCUACUGGGUAACCUAA", "pre-steady-state target cleavage rate": "0.00647 ± 0.0078"},
      {"sequence": "CUUAAGGAGACCAUCUACUGGGUUACCGAA", "pre-steady-state target cleavage rate": "0.000382 ± 0.016"},
      {"sequence": "CUUAAGGAGAGCAUCUACUGGCUUACCUAA", "pre-steady-state target cleavage rate": "0.000931 ± 0.0058"},
      {"sequence": "CUUAAGGAGACCUAGAUGACGGUUACGUUA", "pre-steady-state target cleavage rate": "0.000563 ± 0.013"},
      {"sequence": "CUUAACCACUGGAUCUACUCGGUUACCUAA", "pre-steady-state target cleavage rate": "0.000525 ± 0.025"}
    ]}
  ]
}
